Reference: PubChem BioAssay AID504444 (National Center for Advancing Translational Sciences (NCATS), 2011)
Among all 360,000 compounds or so, about 7,500 (2.1%) were called active. The inconclusive results got no clear call from the source; some entries with a clear call stand among them for comparison. Calls come from the whole dose curve; as a rule, active = well fitted inhibition curve with a large enough effect; inconclusive = small, poorly fitted or top-dose-only effect, or effect the other way; inactive = flat fitted curve, though single readings scatter. Potencies of inconclusive entries are doubtful fits and often do not repeat.

Test: Nrf2 qHTS screen for inhibitors; note: nearly all actives have a fitted effect of over 60% in size
Details: A549 ARE-Fluc reporter, luciferase luminescence, 18-24 h; activity change, negative = inhibition: at 46 µM (top of the series)
How it was run: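 Concentration-response testing used A549 ARE_Fluc cells at 5000 cells/well. Following an 18-24 h compound incubation, viability was read by fluorescence (Ex 405/Em 525) and luciferase output by luminescence.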
% is set by controls: 0 for no effect and ±100 for the full control effect; potency is the fitted concentration of half-maximal effect.

SMILES | Potency | activity change, negative = inhibition
Cc1ccc(C(=O)c2cc([N+](=O)[O-])ccc2N2CCCCC2)cc1 | inconclusive: 29.1 µM [falling, single point] | 
COc1ccc(-c2noc(CNC(=O)Nc3ccc(F)cc3)n2)cc1 | inconclusive: 23.1 µM [falling, single point] | 
CC(OC(=O)c1ccc(S(=O)(=O)N(C)C)cc1)C(=O)Nc1ccc(Cl)cn1 (stereo not drawn) |  | inactive: 7.06%
O=c1cc(-c2ccc3c(c2)OCO3)oc2ccccc12 |  | inactive: 16.5%
COc1ccc(N(CC(=O)Nc2cc(C)ccc2C)S(=O)(=O)c2ccc(OC)c(OC)c2)cc1 | inconclusive: 32.6 µM [falling, partial curve, poor fit] | 
CCOC(=O)c1c(SCCN2CCCCC2)n(-c2ccccc2)c(=S)n(-c2ccccc2)c1=O |  | inactive: 3.25%
COc1ccccc1NC(=O)C1CCC(CNc2c(N3CCCCC3)c(=O)c2=O)CC1 (stereo not drawn) | inconclusive: 4.11 µM [falling, partial curve, poor fit] | 
COc1cccc(NC(=O)[C@@H]2CCCN2C(=O)C2CCN(S(=O)(=O)c3ccc(C)cc3)CC2)c1 |  | inactive: -15.2%
O=C(CN1CCN(C(=O)c2ccco2)CC1)Nc1ccccc1-c1ccccc1 | inconclusive: 14.6 µM [falling, partial curve, poor fit] | 
O=C(CSc1nnc(-c2ccccc2)o1)N1CCOCC1 | inconclusive: 29.1 µM [activator, single point] | 
O=C1C2C3C=CC(C4CC34)C2C(=O)N1/N=C/c1ccc(-c2cccc([N+](=O)[O-])c2)o1 (stereo not drawn) |  | inactive: -3.16%
CC(C)(C)OC(=O)NCCCCCc1cn([C@@H](CO)C(=O)NCCCCCCCCCCC(=O)N2CCN(C(=O)OC(C)(C)C)CC2)nn1 | active: 7.31 µM | 
CC(=O)Nc1ccc(NC(=O)COC(=O)c2c3c(nc4ccccc24)CCN(Cc2ccccc2)C3)cc1 | inconclusive: 20.6 µM [falling, single point] | 
Cc1ccc(C)c2[nH]c(=O)c(C(c3nnnn3CCc3ccccc3)N3CCOCC3)cc12 (stereo not drawn) |  | inactive: -13.6%
Cc1cc(C)cc(C(=O)NCC(=O)N2CCN(c3cccc(Cl)c3)CC2)c1 | active: 20.6 µM | 
CCCC(=O)Nc1ccccc1-c1nnn(CC(=O)Nc2ccc(OC)cc2)n1 | inconclusive: 29.1 µM [falling, single point] | 
COc1ccc(N2CCN(C(=O)C3CCN(C(=O)c4cccc(Cl)c4)CC3)CC2)cc1 | inconclusive: 29.1 µM [falling, single point] | 
COc1cccc(/C(C)=N/N=C(\C)c2cccc(OC)c2)c1 | inconclusive: 7.31 µM [activator, partial curve] | 

Part of the list above in order of SMILES length, ascending.
SMILES | Potency | activity change, negative = inhibition
CCCC(=O)Nc1ccccc1-c1nnn(CC(=O)Nc2ccc(OC)cc2)n1 | inconclusive: 29.1 µM [falling, single point] | 
CC(OC(=O)c1ccc(S(=O)(=O)N(C)C)cc1)C(=O)Nc1ccc(Cl)cn1 (stereo not drawn) |  | inactive: 7.06%
Cc1ccc(C)c2[nH]c(=O)c(C(c3nnnn3CCc3ccccc3)N3CCOCC3)cc12 (stereo not drawn) |  | inactive: -13.6%
